Data reported in article PMC12018552.
Results are given in words; binding and its absence hold for the method and conditions named. Binding seen in cells or lysates may run through a third protein. Some entries that bind do so weakly or less than the wild type.

Protein sequences, listed by entry. Tags and fused reporters are not part of them. Residues count along the entry.
UniProt Q9QUJ7: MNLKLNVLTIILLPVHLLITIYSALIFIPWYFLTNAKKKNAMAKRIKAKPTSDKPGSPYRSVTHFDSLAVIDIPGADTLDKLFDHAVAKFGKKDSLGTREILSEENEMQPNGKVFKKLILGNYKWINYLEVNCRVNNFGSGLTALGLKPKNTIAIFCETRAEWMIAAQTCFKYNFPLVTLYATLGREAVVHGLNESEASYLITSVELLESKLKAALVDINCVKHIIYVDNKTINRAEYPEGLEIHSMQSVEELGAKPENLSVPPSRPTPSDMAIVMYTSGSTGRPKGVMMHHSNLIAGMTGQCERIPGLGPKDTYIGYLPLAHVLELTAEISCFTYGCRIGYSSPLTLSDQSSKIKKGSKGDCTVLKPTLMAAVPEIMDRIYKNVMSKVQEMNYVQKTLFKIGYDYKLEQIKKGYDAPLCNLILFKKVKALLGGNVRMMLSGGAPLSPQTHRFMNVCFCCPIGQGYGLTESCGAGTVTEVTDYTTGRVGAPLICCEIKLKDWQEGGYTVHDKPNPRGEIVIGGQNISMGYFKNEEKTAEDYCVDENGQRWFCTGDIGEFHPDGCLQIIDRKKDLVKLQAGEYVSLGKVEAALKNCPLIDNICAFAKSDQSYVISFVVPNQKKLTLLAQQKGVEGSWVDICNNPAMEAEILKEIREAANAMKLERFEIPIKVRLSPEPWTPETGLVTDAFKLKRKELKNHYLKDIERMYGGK
UniProt Q64339, residues 1-155: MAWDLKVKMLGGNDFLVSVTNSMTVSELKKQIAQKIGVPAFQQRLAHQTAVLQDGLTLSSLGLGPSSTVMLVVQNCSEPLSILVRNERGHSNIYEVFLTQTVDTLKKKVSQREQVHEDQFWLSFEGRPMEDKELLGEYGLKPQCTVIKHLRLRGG

Biological target: Acyl-CoA Synthetase Long-chain Family Member 4 (ACSL4) (mouse (endogenous in BV2)) (UniProt Q9QUJ7)
Assay: co-IP; BV2 cells lysed in RIPA buffer, lysate at 1 mg/ml, pre-cleared, primary antibody overnight at 4°C, agarose beads, washed with RIPA + 0.1% Triton X-100, blotted; cells treated with LPS (1 μg/ml, 12 h) with or without siHK2 or siISG15 (24 h); which protein was precipitated is not told

With “interferon-stimulated gene 15 (ISG15) (from UniProt Q64339 1-155)” the binding was “binds”.
